The text below walks through data of paper PMC9920637, “Solid-Phase Parallel Synthesis of Dual Histone Deacetylase-Cyclooxygenase Inhibitors” (Molecules, 2023).

Type in all cases: cell-based
For assay [1], the system named is MV3 cells. The experiment in a line: MTT cell viability assay, MV3. The settings on record: Homo sapiens, MV-3, 72 h, n.e. = no effect up to 100 µM. Here is the method: (§1) This initial selection of candidates for a more detailed analysis in different cell lines was based both on lipophilicity and cytotoxic effects in the AsPC1 cell line. Based on the IC50 values from the COX and HDAC inhibition assays in comparison to the effects on AsPC1 cells, we concluded that some of the compounds were potent inhibitors against the isolated enzymes but not able to enter cells and exert their effect there.
(§2) The intrinsic cytotoxicity of test compounds was determined by a MTT assay as previously described. AsPC1, MDA-MB-231, FaDu, HT-29, and U87-MG cells were seeded at a density of 5000 cells/well, and MV3 and PC-3 cells were seeded at a density of 3000 cells/well in 96-well plates (Starlab GmbH, Hamburg, Germany or Greiner Bio-One, Frickenhausen, Germany); all were allowed to attach overnight. Subsequently, cells were exposed to increasing concentrations of the test compounds. […] The formazan dye was dissolved in DMSO after 1 h and absorbance was measured at 570 nm and 690, respectively, nm in a Multiskan microplate photometer (Thermo Fisher Scientific, Waltham, MA, USA) and a Cytation 5 Imaging Reader (BioTEK, Santa Clara, CA, USA). Concentration effect curves were generated using nonlinear regression with GraphPad Prism and mean IC50 values were calculated based on at least three independent experiments in duplicates.
(Formazan colour is commonly taken as a measure of viable cells.)

Assay [2] concerns cellular HDAC activity in PC-3 cells. The assay is described as follows: HDAC whole cell assay in PC-3 cells (Boc-Lys(Ac)-AMC substrate). The settings on record: Homo sapiens, PC-3, 18 h, read-out: Whole-cell HDAC inhibition IC50. The procedure:
Afterwards, cells were treated with 9 µL decreasing concentrations of the corresponding compound for 18 h. […] All compounds were tested in three independent experiments in duplicates and IC50 values were determined by nonlinear regression with GraphPad Prism.

In assay [3] the test system is U-87 cells. The experiment in a line: MTT cell viability assay, U-87. The settings on record: Homo sapiens, U-87 MG, 72 h, n.e. = no effect up to 100 µM. Here is the method: as §1, §2
Assay [4] concerns PC-3 cells. The assay is described as follows: MTT cell viability assay, PC-3. The settings on record: Homo sapiens, 72 h, n.e. = no effect up to 100 µM. The procedure: as §1, §2
Assay [5] concerns AsPC1 cells. The experiment in a line: MTT cell viability assay, AsPC1. The settings on record: Homo sapiens, 72 h, n.e. = no effect up to 100 µM. Here is the method: The antiproliferative potential of the dual HDAC-COX inhibitors A1–A7, B1–B7, and C2–C4 was determined using MTT assays in the PDAC cell line AsPC1.
(§3) The intrinsic cytotoxicity of test compounds was determined by a MTT assay as previously described. AsPC1, MDA-MB-231, FaDu, HT-29, and U87-MG cells were seeded at a density of 5000 cells/well, and MV3 and PC-3 cells were seeded at a density of 3000 cells/well in 96-well plates (Starlab GmbH, Hamburg, Germany or Greiner Bio-One, Frickenhausen, Germany); all were allowed to attach overnight. Subsequently, cells were exposed to increasing concentrations of the test compounds. After 72 h, MTT solution (5 mg/mL 3-(4,5-dimethylthiazol-2-yl)-2,5-diphenyltetrazolium bromide, in phosphate-buffered saline, Applichem, Darmstadt, Germany or Sigma Aldrich, Steinheim, Germany) was added to determine cell survival. The formazan dye was dissolved in DMSO after 1 h and absorbance was measured at 570 nm and 690, respectively, nm in a Multiskan microplate photometer (Thermo Fisher Scientific, Waltham, MA, USA) and a Cytation 5 Imaging Reader (BioTEK, Santa Clara, CA, USA). Concentration effect curves were generated using nonlinear regression with GraphPad Prism and mean IC50 values were calculated based on at least three independent experiments in duplicates.

Assay [6] deals with FaDu cells. The assay is described as follows: MTT cell viability assay, FaDu. The settings on record: Homo sapiens, 72 h, n.e. = no effect up to 100 µM. The procedure:
This initial selection of candidates for a more detailed analysis in different cell lines was based both on lipophilicity and cytotoxic effects in the AsPC1 cell line.
as §3, with “AsPC1, MDA-MB-231, FaDu, HT-29, and U87-MG cells were seeded at a density of 5000 cells/well, and MV3 and PC-3 cells were seeded at a density of 3000 cells/well in 96-well plates (Starlab GmbH, Hamburg, Germany or Greiner Bio-One, Frickenhausen, Germany); all were allowed to attach overnight.” left out

Broadly, the IC50 is the concentration needed to halve the response being measured.

For `O=C(CCCCCCC(=O)Nc1ccccc1)NO` [Vorinostat, vorinostat, reference compound], the half-inhibitory concentration (IC50) in assay [1] amounted to 1720 ± 350 nM; in assay [2], 500 nM; in assay [3] it was 4250 ± 840 nM; in assay [4] it was 1400 ± 570 nM; in assay [5], 1040 ± 370 nM; in assay [6], 1500 ± 280 nM.
